Reference: patent publication US10149830B2, “Pharmaceutical agents and methods relating thereto” (Cushing Academy, priority 2016, dated 2018)

Tested on: MCF-7 (breast adenocarcinoma)
Assay: MTT reduction cytotoxicity assay, MCF-7
Assay type: cell-based
Settings: Homo sapiens, MCF7, MCF-7, MTT, 72 h incubation
Description: The human tumor cell lines used were HL-60 (promyelocytic leukemia), MCF-7 (breast adenocarcinoma) and NCI-H292 (lung carcinoma). The cells were obtained from Rio de Janeiro Cell Bank (RJ, Brazil). Cancer cells were maintained in RPMI 1640 medium or DMEN supplemented with 10% fetal bovine serum, 2 mM glutamine, 100 U/mL penicillin, 100 μg/mL streptomycin at 37° C. with 5% CO2. Cytotoxicity of (6R)-6-[(2Z)-pent-2-enyl]-5,6-dihydro-2H-pyran-2-one [(R)-(−)-Tuberolactone] against the three tumor cell lines was assessed using the 3-(4,5-dimethyl-2-thiazolyl)-2,5-diphenyl-2H tetrazolium bromide (MTT) (Sigma Aldrich Co., St. Louis, Mo., USA) reduction assay. Tumor cells were plated in 96-well plates (10^5 cells/mL for adherent cells or 3×10^5 cells/mL for Leukemia). (6R)-6-[(2Z)-pent-2-enyl]-5,6-dihydro-2H-pyran-2-one [(R)-(−)-Tuberolactone] in DMSO (0.3-25 μg/mL) were added to each well and incubated for 72 h. Control groups received the same amount of DMSO. After 69 h of treatment, 25 μL of MTT (5 mg/mL) was added. Three hours later, the MTT formazan product was dissolved in 100 μL of DMSO. Absorbance was measured at 595 nm in plate spectrophotometer (Varioskan Flash, Thermo Scientific). […] IC50 values and their 95% confidence intervals for two different experiments were obtained by non linear regression using Graphpad Prism version 5.0 for Windows (GraphPad Software, San Diego, Calif., USA).

COc1cccc2c1C(=O)c1c(O)c3c(c(O)c1C2=O)C[C@@](O)(C(=O)CO)C[C@@H]3O[C@H]1C[C@H](N)[C@H](O)[C@H](C)O1 [Doxorubicin, reference compound]
IC50 (two experiments): 0.3 mg/L | IC50 (value in parentheses): 0.5 µM
